Assay results reported in patent US20100061996A1.
These are yes or no findings as the source states them, for the method shown. Some binding calls cover weakened binding; strength is not graded here.

Chains of the proteins cited; added tags and fusions are not shown. Residues count along the entry.
UniProt P05981, residues 45-417: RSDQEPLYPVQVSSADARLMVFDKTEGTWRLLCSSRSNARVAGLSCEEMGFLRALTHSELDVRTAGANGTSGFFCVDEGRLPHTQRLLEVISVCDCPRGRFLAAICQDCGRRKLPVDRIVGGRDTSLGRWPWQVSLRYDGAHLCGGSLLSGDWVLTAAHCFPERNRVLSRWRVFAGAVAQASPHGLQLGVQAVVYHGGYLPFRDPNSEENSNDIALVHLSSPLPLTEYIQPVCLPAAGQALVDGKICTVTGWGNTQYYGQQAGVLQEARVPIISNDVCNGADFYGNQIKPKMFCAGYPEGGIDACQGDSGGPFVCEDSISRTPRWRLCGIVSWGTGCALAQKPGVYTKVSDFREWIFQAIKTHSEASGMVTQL
UniProt P00747, residues 97-810: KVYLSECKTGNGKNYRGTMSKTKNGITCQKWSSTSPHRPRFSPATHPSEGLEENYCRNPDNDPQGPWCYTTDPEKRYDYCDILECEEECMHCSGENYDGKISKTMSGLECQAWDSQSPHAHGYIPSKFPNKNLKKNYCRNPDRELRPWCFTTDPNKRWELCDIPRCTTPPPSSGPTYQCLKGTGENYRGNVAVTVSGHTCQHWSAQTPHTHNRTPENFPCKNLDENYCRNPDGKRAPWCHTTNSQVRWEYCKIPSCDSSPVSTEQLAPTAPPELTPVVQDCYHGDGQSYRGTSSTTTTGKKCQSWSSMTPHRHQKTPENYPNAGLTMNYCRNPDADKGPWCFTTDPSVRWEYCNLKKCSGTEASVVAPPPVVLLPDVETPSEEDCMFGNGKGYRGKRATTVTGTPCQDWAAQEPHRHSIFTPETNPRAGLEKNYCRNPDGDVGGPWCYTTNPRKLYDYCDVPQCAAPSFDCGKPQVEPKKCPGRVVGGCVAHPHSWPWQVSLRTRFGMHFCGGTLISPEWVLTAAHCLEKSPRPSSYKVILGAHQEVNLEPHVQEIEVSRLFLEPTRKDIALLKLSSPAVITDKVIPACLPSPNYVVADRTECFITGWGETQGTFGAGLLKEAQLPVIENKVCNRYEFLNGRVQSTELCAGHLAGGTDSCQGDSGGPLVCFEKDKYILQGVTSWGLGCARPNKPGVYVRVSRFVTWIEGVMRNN

Assays:
[1] = target: T1, matriptase protease domain (UniProt Q9Y5Y6); assay: enzyme inhibition
T1 sequence (looked up): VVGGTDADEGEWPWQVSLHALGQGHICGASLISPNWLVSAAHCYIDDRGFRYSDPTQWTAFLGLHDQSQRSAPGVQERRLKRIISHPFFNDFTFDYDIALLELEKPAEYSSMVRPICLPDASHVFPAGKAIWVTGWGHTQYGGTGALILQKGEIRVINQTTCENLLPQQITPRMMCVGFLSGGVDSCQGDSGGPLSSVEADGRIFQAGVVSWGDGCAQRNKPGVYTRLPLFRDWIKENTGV

[2] = target: soluble His-tagged hepsin comprising the entire extracellular domain of human hepsin (Arg45-Leu417) (human) (UniProt P05981); assay: enzyme inhibition
[3] = target: T2, HGFA (hepatocyte growth factor activator) (UniProt Q04756); assay: enzyme inhibition (data not shown)
T2 sequence (looked up): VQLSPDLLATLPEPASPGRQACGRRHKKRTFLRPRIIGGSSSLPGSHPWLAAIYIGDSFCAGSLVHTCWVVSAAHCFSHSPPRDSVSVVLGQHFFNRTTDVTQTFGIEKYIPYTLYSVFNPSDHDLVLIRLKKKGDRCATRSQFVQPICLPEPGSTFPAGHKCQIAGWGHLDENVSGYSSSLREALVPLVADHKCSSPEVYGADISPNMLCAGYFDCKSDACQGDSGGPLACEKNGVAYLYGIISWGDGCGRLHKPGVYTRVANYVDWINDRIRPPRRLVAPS

Lys-plasmin = Lys-plasmin (UniProt P00747); assay: enzyme inhibition (data not shown)
[4] = target: T1, matriptase protease domain; assay: enzyme inhibition, 400 nM HAI-2 used to stop pro-uPA cleavage
[5] = target: soluble His-tagged hepsin comprising the entire extracellular domain of human hepsin (Arg45-Leu417) (human) (UniProt P05981); assay: as above

Measured: binding

B1: soluble HAI-2 (hepatocyte growth factor activator inhibitor-2) (protein, UniProt O43291 28-197, looked up)
chain: ADRERSIHDFCLVSKVVGRCRASMPRWWYNVTDGSCQLFVYGGCDGNSNNYLTKEECLKKCATVTENATGDLATSRNAADSSVPSAPRRQDSEDHSSDMFNYEEYCTANAVTGPCRASFPRWYFDVERNSCNNFIYGGCRGNKNSYRSEEACMLRCFRQQENPPLPLGSK
binds: [1] | [2] | [3] | Lys-plasmin | [4] | [5]
